From paper doi:10.1101/2024.06.18.599568
These are yes or no findings as the source states them, for the method shown. In cells and extracts the contact can be indirect. Here binding means that the protein was enriched with, or labelled near, the bait; the list need not be complete.

Chains of the proteins cited; added tags and fusions are not shown. Residues count along the entry.
UniProt Q9WTL8, residues 2-632: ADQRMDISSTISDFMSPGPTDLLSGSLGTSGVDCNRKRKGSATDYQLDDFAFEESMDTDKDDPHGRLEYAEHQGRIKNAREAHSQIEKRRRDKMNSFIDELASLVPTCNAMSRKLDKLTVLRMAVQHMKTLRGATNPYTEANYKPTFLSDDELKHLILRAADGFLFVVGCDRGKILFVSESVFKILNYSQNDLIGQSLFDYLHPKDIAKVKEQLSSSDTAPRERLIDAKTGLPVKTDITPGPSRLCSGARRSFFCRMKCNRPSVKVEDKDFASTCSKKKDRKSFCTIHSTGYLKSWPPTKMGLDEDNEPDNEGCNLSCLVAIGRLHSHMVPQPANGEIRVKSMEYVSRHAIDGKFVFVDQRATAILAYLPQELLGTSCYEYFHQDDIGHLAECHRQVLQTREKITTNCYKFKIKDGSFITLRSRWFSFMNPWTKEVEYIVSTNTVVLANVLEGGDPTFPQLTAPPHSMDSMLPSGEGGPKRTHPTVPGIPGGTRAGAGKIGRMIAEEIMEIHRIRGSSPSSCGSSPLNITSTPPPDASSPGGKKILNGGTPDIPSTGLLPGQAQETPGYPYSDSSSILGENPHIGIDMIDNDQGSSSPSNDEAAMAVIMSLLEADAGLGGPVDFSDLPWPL
UniProt Q6PR54: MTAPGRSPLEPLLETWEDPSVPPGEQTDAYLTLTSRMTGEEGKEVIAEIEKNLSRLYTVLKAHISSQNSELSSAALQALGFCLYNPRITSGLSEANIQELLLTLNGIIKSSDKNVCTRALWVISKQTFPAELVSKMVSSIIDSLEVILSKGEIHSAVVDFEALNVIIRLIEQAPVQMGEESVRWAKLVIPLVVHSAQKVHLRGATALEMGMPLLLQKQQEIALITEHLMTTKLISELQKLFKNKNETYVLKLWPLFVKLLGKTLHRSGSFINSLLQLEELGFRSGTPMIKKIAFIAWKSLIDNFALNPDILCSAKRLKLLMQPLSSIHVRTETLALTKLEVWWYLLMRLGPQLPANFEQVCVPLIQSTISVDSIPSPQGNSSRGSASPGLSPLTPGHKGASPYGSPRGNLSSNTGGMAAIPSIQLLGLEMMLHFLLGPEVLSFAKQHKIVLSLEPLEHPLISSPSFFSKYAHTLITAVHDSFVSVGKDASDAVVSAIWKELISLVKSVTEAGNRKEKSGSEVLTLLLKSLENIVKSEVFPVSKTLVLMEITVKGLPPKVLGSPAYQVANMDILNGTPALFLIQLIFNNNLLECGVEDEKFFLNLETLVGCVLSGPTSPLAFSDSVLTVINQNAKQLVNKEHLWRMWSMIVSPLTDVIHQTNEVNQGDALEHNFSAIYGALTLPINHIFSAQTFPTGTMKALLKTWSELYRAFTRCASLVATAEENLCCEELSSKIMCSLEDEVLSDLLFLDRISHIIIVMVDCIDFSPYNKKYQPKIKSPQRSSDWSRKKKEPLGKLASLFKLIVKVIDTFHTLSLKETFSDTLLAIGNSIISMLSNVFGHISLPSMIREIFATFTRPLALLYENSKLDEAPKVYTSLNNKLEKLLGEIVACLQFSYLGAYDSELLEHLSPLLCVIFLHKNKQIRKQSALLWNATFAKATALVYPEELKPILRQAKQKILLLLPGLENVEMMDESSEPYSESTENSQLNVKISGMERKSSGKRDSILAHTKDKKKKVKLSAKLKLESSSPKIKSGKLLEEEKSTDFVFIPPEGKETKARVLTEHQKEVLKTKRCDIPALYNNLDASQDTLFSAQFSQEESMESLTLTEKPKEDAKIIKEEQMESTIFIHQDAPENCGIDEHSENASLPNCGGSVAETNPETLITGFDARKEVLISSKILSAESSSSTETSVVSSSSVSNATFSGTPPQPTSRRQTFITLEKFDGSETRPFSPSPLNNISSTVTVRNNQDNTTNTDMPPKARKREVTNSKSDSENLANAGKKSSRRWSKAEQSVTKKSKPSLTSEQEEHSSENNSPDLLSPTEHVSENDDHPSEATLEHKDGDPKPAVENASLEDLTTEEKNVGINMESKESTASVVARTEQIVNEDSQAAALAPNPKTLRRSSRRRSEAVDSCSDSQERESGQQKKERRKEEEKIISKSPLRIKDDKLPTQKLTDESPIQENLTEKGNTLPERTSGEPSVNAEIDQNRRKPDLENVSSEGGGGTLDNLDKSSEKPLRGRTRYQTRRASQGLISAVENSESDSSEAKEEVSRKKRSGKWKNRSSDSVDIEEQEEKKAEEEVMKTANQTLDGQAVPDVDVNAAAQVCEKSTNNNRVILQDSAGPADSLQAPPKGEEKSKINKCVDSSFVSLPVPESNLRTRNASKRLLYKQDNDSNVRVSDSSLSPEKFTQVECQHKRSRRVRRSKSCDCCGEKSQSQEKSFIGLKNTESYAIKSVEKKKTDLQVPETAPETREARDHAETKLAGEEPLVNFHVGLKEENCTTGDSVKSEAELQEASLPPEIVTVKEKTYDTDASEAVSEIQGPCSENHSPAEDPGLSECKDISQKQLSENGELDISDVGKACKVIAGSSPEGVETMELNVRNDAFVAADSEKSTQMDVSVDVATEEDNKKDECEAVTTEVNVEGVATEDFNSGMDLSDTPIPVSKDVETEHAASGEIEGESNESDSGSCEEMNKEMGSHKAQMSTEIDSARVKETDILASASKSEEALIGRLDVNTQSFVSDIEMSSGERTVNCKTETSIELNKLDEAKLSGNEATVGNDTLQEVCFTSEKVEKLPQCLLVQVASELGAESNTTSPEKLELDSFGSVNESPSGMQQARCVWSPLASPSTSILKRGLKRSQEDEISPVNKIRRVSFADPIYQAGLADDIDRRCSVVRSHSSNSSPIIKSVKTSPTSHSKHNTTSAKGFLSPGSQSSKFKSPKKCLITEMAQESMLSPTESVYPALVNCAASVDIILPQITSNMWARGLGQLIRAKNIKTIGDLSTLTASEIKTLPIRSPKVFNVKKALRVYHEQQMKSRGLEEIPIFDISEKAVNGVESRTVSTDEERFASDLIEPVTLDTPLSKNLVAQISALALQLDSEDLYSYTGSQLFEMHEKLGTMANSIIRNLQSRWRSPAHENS
UniProt Q61464: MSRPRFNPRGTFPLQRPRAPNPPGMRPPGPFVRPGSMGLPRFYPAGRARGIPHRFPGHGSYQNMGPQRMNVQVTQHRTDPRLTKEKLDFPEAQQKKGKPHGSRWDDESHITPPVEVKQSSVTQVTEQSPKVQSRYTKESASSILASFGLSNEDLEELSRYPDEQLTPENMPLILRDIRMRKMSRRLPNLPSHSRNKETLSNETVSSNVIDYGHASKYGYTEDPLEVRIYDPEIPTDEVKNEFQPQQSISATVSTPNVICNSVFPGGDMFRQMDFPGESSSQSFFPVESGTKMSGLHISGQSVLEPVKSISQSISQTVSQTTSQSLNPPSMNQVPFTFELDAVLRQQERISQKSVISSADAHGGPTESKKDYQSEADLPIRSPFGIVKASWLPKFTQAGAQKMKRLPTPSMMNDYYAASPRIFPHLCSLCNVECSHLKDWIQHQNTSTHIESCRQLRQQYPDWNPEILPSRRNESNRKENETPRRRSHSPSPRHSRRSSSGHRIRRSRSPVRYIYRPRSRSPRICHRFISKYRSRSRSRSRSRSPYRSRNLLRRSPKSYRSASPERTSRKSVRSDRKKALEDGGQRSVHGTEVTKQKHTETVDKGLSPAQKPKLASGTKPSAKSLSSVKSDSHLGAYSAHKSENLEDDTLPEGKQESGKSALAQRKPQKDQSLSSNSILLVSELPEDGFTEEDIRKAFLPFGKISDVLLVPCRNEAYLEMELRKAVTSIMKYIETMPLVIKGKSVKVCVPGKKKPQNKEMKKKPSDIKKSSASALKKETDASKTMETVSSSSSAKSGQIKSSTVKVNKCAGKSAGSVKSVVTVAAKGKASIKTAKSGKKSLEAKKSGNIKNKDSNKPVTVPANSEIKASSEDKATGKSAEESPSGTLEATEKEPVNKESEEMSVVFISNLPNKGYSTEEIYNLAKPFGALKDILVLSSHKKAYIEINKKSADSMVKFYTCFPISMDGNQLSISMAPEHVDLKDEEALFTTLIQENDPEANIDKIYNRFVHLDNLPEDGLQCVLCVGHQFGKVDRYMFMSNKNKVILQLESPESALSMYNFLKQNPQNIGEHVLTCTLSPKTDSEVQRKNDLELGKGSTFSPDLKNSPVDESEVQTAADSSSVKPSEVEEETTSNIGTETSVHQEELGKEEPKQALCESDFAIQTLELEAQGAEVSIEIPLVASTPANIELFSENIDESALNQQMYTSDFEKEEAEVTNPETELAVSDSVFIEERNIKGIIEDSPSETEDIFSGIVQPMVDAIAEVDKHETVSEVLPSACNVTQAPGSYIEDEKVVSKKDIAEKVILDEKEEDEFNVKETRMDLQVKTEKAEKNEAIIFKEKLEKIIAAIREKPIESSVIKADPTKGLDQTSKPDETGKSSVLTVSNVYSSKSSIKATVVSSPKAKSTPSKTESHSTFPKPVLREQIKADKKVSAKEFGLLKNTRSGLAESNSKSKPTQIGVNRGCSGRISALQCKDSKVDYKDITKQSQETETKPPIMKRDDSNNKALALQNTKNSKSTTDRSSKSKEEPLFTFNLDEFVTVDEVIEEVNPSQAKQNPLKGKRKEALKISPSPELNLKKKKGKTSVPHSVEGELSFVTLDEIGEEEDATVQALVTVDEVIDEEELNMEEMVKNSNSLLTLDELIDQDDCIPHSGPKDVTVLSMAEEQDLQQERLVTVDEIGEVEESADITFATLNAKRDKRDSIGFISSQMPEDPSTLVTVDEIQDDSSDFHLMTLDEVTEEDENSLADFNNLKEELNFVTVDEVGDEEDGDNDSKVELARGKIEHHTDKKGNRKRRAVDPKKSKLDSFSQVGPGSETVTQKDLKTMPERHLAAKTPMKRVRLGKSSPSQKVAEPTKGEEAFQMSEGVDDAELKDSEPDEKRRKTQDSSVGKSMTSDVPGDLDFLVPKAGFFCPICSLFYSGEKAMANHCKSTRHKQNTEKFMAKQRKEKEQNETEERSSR

Target: FLAG-BMAL1 (2XFLAG on the N-terminus of BMAL1 protein) (mouse) (UniProt Q9WTL8)
Experiment: affinity purification with mass spectrometry

binding	Molecule
binds	RIF1 (from UniProt Q6PR54 1-2419)
binds	ZFP638 (from UniProt Q61464 1-1960)
binds	ZFP281 (protein, UniProt Q99LI5 1-893) MKIGSGFLSGGGGPSSSGGSGSGGSSGSASGGSGGGRRAEMEPTFPQSMVMFNHRLPPVTSFTRPAGTAAPPPQCVLSSSTSAAPAAEPPPPPAPDMTFKKEPAASAAAFPSQRTSWGFLQSLVSIKQEKPADPEEQPSHHHHHHHHYGGLFAGAEERSPGLGGGEGGSHGVIQDLSLLHQHAQQQPAQHHRDVLLSSGSRTDEHGNQEPKQDANVKKAKRPKPESQGIKAKRKPSASSKPLVGEGEGAVLSPSQKPHICDHCSAAFRSSYHLRRHVLIHTGERPFQCSQCSMGFIQKYLLQRHEKIHSREKPFGCDQCSMKFIQKYHMERHKRTHSGEKPYKCDTCQQYFSRTDRLLKHRRTCGEAIAKGAASAEPGSSNHNSMGNLAVLSQGNTSSSRRKSKSKSIAIENKEHKTGKTNESQMSNNINMQSYSVEMPTVSTSGSIIGTGIDELQKRVPKLIFKKGSRKNADKSYLNFVSPLPDVVGQKSLSGKPGGSLGIVSNNSVETISLLQSTSGKQGPISSNYDDAMQFSKKRRYLPTASSNSAFSINVGHMVSQQSVIQSAGVSVLDNEAPLSLIDSSALNAEIKSCHDKSGIPDEVLQSILDQYSGKSETQKEDPFNLTEPRVDLHTSGEHSELVQEENLSPGTQTPSNDKTSMLQEYSKYLQQAFEKSTNAGFTLGHGFQFVSLSSPLHNHTLFPEKQIYTTSPLECGFGQSVTSVLPSSLPKPPFGMLFGSQPGLYLSALDATHQQLTPSQELDDLIDSQKNLETSSAFQSSSQKLTSQKEQQKNLESSTSFQIPSQELASQIDPQKDIEPRTTYQIENFAQAFGSQFKSGSRVPMTFITNSNGEVDHRVRTSVSDFSGYTNMMSDVSEPCSTRVKTPTSQSYR
binds	ZFP326 (protein, UniProt O88291 1-580) MDFEDDYVHSTCRGAYQDFNGMDRDYGPGSYGGLDRDYGHGSYGGQRSMDSYLNQSYGMDNHSGGGGGSRFGPYESYDSRSSLGGRDLYRSGYGFNEPEQTRFGGSYGGRFESSYRNSLDSFGGRNQGGSSWEAPYSRSKLRPGFMEDRGRENYSSYSSFSSPHMKPAPVGSRGRGTPAYPESTFGSRSYDAFGGPSTGRGRGRGHMGDFGSFHRPGIIVDYQNKPANVTIATARGIKRKMMQIFIKPGGAFIKKPKLAKPMDKMNLSKSPTKTDPKNEEEEKRRIEARREKQRRRREKNSEKYGDGYRMAFTCSFCKFRTFEEKDIELHLESSSHQETLDHIQKQTKFDKVVMEFLHECMVNKFKKASIRKQQTLNHPEAYKIIEKDIMEGVTADDHMMKVETVHCSACSVYIPALHSSVQLHLKSPDHSKGKQAYKEQIKRESVLTATSILNNPIVKARYERFVKGENPFEIQDHPQDQQIEGDEEDEEKIDEPIEEEEEEEEEEEEEGEEAGSVEEEGDVEGEEGTAEAAAAGEADAVGEAEGAGEAEEAEEEEEEEGTQEFAAQACATEQCEHRQM
